Assay results published in PubChem BioAssay AID624297 (National Center for Advancing Translational Sciences (NCATS), 2012).
About 6,200 (1.8%) of roughly 340,000 compounds were called active. Inconclusive means that the source gave no clear call. Such entries were picked first, then a sample of the others. Calls come from the whole dose curve; as a rule, active = well fitted activation curve with a large enough effect; inconclusive = small, poorly fitted or top-dose-only effect; inactive = no such curve, though single readings can be large or run the other way. Potencies beside an inconclusive call are fits to weak or partial responses and may not hold up.

Assay: A quantitative high throughput screen for small molecules that induce DNA re-replication in SW480 colon adenocarcinoma cells. For re-replication activation: % of control where 0% means no effect. Note: nearly all actives have a fitted effect of over 55% in size.
Conditions: Hoechst DNA content imaging, 48 h; re-replication activation: at 46.1 µM (top of the series) unless noted
Outline: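 Treated cells incubate 48 hr (37 C, 5% CO2), are stained 40 min with Hoechst, and nuclear fluorescence is enumerated; a rise in nuclei with high DNA signal marks re-replication.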
Potency is the fitted concentration of half-maximal effect.

| SMILES | Potency | re-replication activation |
| --- | --- | --- |
| CC(=O)c1cccc(NC(=O)CCCSc2ccccc2)c1 | inconclusive: 14.6 µM [activator, single point] | – |
| Cc1ccc(OCCn2cnc3c2c(=O)n(C)c(=O)n3C)cc1 | inconclusive: 0.092 µM [activator, full curve, poor fit] | – |
| COc1ccc(N2CCN(C(=O)CCCOc3cc(=O)n(C)c4ccccc34)CC2)cc1 | – | inactive: -0.422% |
| COc1ccc(/C=N/NC(=O)c2ccc3c(c2)OCCO3)cc1[N+](=O)[O-] | – | inactive: -2.56% |
| CCc1cccc(NS(=O)(=O)c2ccc3c(c2)NC(=O)CO3)c1 | inconclusive: 29.1 µM [activator, single point] | – |
| C=CCc1cc(C=O)cc(OC)c1OCc1c(Cl)cccc1Cl | inconclusive: 16.4 µM [activator, single point] | – |
| COCC(C)n1c(SCc2ccc(OC)c(F)c2)nc2ccccc2c1=O (stereo unspecified) | – | inactive: 3.62% |
| N/N=C/C(=N\Nc1ccc(Cl)cc1)C(=O)c1ccncc1 | active: 10.3 µM | – |
| Cc1ccc(-n2cc(CNCCn3nc(C)cc3C)c(-c3ccc(F)cc3)n2)cc1 | active: 18.4 µM | – |
| CCOc1ccc(C2/C(=C(/O)c3ccc(S(=O)(=O)N4CCCCC4)cc3)C(=O)C(=O)N2CCCOC)cc1OC (stereo unspecified) | – | inactive: -2.78% |
| O=[N+]([O-])c1ccc(O)c(Nc2ncnc3ccccc23)c1 | – | inactive: -146% |
| O=C(CCNc1cccc(Cl)c1)c1ccco1 | inconclusive: 4.11 µM [activator, full curve] | – |
| O=C(Nc1ccccc1O)C(c1ccccc1)c1ccccc1 | inconclusive: 2.59 µM [activator, full curve] | – |
| Clc1ccc2nc(-c3ccc(Cl)nc3)[nH]c2c1 | active: 13 µM | – |
| COc1ccc(S(=O)(=O)Oc2ccc3cccc(N)c3c2)cc1 | inconclusive: 18.4 µM [activator, single point] | – |
| O=c1c2ccccc2ncn1-c1ccc([N+](=O)[O-])cc1Cl | inconclusive: 29.1 µM [activator, single point] | – |
| CCOC(=O)C1=C(N)OC(C)=C(C#N)C1c1ccco1 (stereo unspecified) | inconclusive: 5.8 µM [activator, partial curve, poor fit] | – |
| Cc1cc(C(=O)COC(=O)C2=NNC(=O)CC2)c(C)n1CCc1ccccc1 | – | inactive: -5.72% |
| COc1ccc(OC)c(S(=O)(=O)N2CCN3CCCC3C2)c1 (stereo unspecified) | inconclusive: 8.2 µM [activator, single point] | – |
| CCN1C(=O)C(CC(=O)Nc2ccc(F)cc2)N(Cc2cccs2)C1=S (stereo unspecified) | – | inactive: -1.89% |
| CCOc1ccc(NC(=O)c2cc([N+](=O)[O-])ccc2N2CCOCC2)cc1 | inconclusive: 29.1 µM [activator, single point] | – |
| CCN(CC)C(=O)c1cc(-c2ccc(Br)cc2)on1 | – | inactive: 8.65% |
| COc1ccc(C(=O)Nc2oc(-c3ccccc3)c(-c3ccccc3)c2C#N)cc1 | inconclusive: 35.5 µM [activator, single point] | – |

For convenience, part of the list above:

| SMILES | Potency | re-replication activation |
| --- | --- | --- |
| COc1ccc(S(=O)(=O)Oc2ccc3cccc(N)c3c2)cc1 | inconclusive: 18.4 µM [activator, single point] | – |
| O=c1c2ccccc2ncn1-c1ccc([N+](=O)[O-])cc1Cl | inconclusive: 29.1 µM [activator, single point] | – |

Additional records.

| SMILES | Potency | re-replication activation |
| --- | --- | --- |
| COc1ccc(S(=O)(=O)N2CCCC2CNC(=O)C(=O)NCc2ccccc2Cl)cc1 (stereo unspecified) | inconclusive: 0.116 µM [activator, full curve, poor fit] | – |
| O=C(O)Cn1cc2c(n1)CCCC2 | – | inactive: 2.4% |
| CCCCCCCC(=O)N/N=C/c1ccncc1 | inconclusive: 29.1 µM [activator, single point] | – |
| COc1ccc(CCNC(=O)C(=O)NCc2cccs2)cc1OC | inconclusive: 25.9 µM [activator, single point] | – |
| CCOc1ccc(NC(=O)C2CC(=O)N3CCCN=C3S2)cc1 (stereo unspecified) | – | inactive: 1.62% |
| O=C(Nc1ccc(OCC(=O)N2CCOCC2)cc1)Nc1cccc2ccccc12 | – | inactive: -0.867% |
| O=C(NC1CC1)C1CCN(S(=O)(=O)c2ccc(Cl)c([N+](=O)[O-])c2)CC1 | inconclusive: 29.1 µM [activator, single point] | – |
| CCn1cc(C(=O)NCCCOC(C)C)c(=O)c2cc(S(=O)(=O)N3CCOCC3)ccc21 | – | inactive: -4.01% |
| O=C(O)c1cc(-c2cc(C(=O)O)c3ccccc3n2)ccc1O | inconclusive: 0.517 µM [activator, partial curve, poor fit] | – |
| C/C(CC(=O)Nc1ccc(Cl)cc1C(F)(F)F)=N\NC(=O)c1cccs1 | inconclusive: 20.6 µM [activator, single point] | – |
| CCCCNc1c(-c2ccc(SC3CCCCC3)cc2)nc2cnccn12 | inconclusive: 29.1 µM [activator, single point] | – |
| COc1ccccc1C1C2=C(CCCC2=O)N(CC(=O)O)C2=C1C(=O)CCC2 | inconclusive: 14.6 µM [activator, single point] | – |
| N#C/C(=C\c1cccc(O)c1)c1nc2ccccc2o1 | – | inactive: -3.65% |
| Cc1cccn2c(=O)nc(SCC(=O)NCc3ccc4c(c3)OCO4)nc12 | – | inactive: -90.5% |
| CN1CC[C@@H]2C(=O)N3CCc4ccc(-c5ccc6c(c5)OCO6)cc4[C@@H]3C[C@@H]21 | inconclusive: 29.1 µM [activator, single point] | – |
| CN(Cc1ccccc1)C(=O)c1oc(=O)c2ccccc2c1-c1ccccc1 | inconclusive: 20.6 µM [activator, single point] | – |
| CCOC(=O)C[C@H]1c2cc(C(F)(F)F)ccc2S(=O)(=O)N1Cc1ccccc1 | – | inactive: -3.67% |
| Clc1ccc(-c2nnc(SCc3cn4ccsc4n3)n2CC2CCCO2)cc1 (stereo unspecified) | – | inactive: -2.28% |
| CC(C)Cn1c(N)c(C(=O)COC(=O)c2ccc([N+](=O)[O-])o2)c(=O)n(C)c1=O | inconclusive: 13 µM [activator, partial curve, poor fit] | – |
| Cc1cc(-c2nnc(-c3ccccc3)c(-c3ccccc3)n2)c(C)o1 | inconclusive: 23.1 µM [activator, partial curve, poor fit] | – |
| C[C@H](NC(=O)NCc1ccc(F)cc1)C(=O)O | inconclusive: 29.1 µM [activator, single point] | – |
| Cc1ccc(S(=O)(=O)NC(CC(C)C)C(=O)N2CCN(C/C=C/c3ccccc3)CC2)cc1 (stereo unspecified) | – | inactive: -8.83% |
| CN(CC(=O)Nc1c(Cl)cccc1Cl)C(=O)c1ccc(-n2cncn2)c([N+](=O)[O-])c1 | inconclusive: 1.84 µM [activator, full curve, poor fit] | – |
